The results in this text go back to PMC8998833.

Amino acid sequences for entries named in this document (tags omitted). A change or cut given only in a name is not applied to a line headed by its entry.
UniProt Q9QUM0: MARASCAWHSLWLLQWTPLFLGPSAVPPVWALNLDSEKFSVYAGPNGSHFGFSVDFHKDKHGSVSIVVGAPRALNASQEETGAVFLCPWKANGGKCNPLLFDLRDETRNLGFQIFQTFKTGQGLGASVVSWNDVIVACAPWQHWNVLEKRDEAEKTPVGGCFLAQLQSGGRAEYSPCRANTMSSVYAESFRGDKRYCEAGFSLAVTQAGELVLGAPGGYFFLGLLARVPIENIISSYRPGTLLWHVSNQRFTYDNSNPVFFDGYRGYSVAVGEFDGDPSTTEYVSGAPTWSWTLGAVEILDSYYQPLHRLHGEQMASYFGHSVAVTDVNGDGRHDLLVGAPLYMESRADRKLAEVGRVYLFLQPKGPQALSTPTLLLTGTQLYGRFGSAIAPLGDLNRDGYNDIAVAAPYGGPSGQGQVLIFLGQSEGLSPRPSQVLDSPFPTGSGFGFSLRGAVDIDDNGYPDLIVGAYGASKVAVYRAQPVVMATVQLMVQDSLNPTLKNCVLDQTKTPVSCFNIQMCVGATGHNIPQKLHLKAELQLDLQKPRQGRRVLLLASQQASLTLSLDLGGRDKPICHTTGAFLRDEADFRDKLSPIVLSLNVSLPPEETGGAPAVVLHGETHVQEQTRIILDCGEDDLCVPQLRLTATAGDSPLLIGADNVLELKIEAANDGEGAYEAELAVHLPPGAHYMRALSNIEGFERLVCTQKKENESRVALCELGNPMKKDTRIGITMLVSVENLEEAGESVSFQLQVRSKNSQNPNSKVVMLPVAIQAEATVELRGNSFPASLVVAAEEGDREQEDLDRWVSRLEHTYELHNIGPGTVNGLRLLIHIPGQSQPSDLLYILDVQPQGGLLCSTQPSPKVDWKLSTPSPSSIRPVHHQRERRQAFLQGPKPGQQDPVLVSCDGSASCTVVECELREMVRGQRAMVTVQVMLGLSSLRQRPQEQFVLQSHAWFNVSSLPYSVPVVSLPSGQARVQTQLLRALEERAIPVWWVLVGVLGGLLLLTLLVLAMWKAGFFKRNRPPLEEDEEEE
UniProt O54890: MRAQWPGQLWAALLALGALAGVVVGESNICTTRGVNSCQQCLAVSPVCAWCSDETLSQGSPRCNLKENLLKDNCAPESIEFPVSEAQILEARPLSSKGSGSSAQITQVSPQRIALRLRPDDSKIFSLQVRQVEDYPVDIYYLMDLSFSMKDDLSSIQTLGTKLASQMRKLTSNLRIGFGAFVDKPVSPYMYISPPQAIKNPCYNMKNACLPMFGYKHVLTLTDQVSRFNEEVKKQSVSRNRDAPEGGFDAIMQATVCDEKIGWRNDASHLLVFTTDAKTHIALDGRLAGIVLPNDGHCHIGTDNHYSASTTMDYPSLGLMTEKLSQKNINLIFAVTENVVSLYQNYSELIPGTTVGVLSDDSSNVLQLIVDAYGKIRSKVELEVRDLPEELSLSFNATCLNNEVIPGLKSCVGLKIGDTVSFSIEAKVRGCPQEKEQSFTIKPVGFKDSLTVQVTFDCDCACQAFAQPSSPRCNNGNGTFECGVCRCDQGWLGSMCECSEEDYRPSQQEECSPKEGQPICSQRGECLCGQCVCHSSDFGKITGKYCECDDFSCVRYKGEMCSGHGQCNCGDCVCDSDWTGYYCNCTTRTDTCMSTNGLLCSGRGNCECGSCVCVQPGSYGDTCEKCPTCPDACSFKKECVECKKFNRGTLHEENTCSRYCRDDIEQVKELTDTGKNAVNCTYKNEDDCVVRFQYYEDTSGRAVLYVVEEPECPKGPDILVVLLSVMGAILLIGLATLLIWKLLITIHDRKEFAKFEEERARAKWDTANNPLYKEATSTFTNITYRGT

No constants are given. Whether binding was seen depends on the method and setting. In cells and extracts the contact can be indirect.

For the experiment, the target named is integrin αIIbβ3 (mouse (endogenous in murine platelets)) (UniProt Q9QUM0+O54890). Description: FRET or BRET; flow cytometric FRET, negative control on murine washed platelets; anti-integrin αIIbβ3 (MWReg30, AF488 donor) and anti-GPIX (p0p6, AF546 acceptor). (In general: In BRET a luciferase serves as donor, and the signal depends on an acceptor being close.)

B1: GPIX (receptor, UniProt O88186 17-177)
chain: TQACPRPCTCQSLETMGLKVNCEGQGLTALPVIPAHTRQLLLANNSLRSVPPGAFDHLPQLWDLDVTHNPWHCDCSLTYLRLWLEDHMPEALMHVYCASPDLATRRPLGQLTGYELGSCGWKLPPSWAYPGVWWDVSLVAVAVLGLILLAGLLNTFTESRN
On to B1, for which the binding entry is “no binding”.
